Some results were stated once for a whole list of compounds, not compound by compound. Some ranges recur; such a range may be that of the whole group of compounds.
How the values were obtained:
[1] = system: AMARE; assay: greenhouse herbicidal test, post-emergence treatment; format: in vivo, Amaranthus retroflexus; settings: post-emergence method, application rate 0.250 kg/ha; scale from 0 to 100
From the text: (§1) The culture containers used were plastic flowerpots containing loamy sand with approximately 3.0% of humus as the substrate. The seeds of the test plants were sown separately for each species.
(§2) For the pre-emergence treatment, the active ingredients, which had been suspended or emulsified in water, were applied directly after sowing by means of finely distributing nozzles. The containers were irrigated gently to promote germination and growth and subsequently covered with transparent plastic hoods until the test plants had rooted. This cover caused uniform germination of the test plants, unless this had been impaired by the active ingredients. For the post-emergence treatment, the test plants were first grown to a height of 3 to 15 cm, depending on the plant habit, and only then treated with the active ingredients which had been suspended or emulsified in water. For this purpose, the test plants were either sown directly and grown in the same containers, or they were first grown separately as seedlings and transplanted into the test containers a few days prior to treatment.
(§3) Depending on the species, the test plants were kept at 10-25° C. or 20-35° C., respectively. The test period extended over 2 to 4 weeks. During this time, the test plants were tended, and their response to the individual treatments was evaluated.
(§4) Evaluation was carried out using a scale from 0 to 100. 100 means no emergence of the test plants, or complete destruction of at least the aerial moieties, and 0 means no damage, or normal course of growth. A good herbicidal activity is given at values of 60 to 90 and a very good herbicidal activity is given at values of 90 to 100.
(§5) The test plants used in the greenhouse experiments were of the following species: […]

[2] = system: SETFA; assay: greenhouse herbicidal test, pre-emergence treatment; format: in vivo, Setaria faberi; settings: pre-emergence method, scale from 0 to 100; for herbicidal activity against SEFTA: application rate 0.250 kg/ha; for herbicidal activity against SETFA: application rate 1,000 kg/ha
From the text: as §1, §2, §3, §4, §5

[3] = system: ECHCG; assay: greenhouse herbicidal test, post-emergence treatment; format: in vivo, Echinocloa crus-galli; settings: post-emergence method, scale from 0 to 100
From the text: as §1, §2, §3, §4, §5

[4] = system: APESV; assay: greenhouse herbicidal test, pre-emergence treatment; format: in vivo, Apera spica-venti; settings: pre-emergence method, scale from 0 to 100
[5] = system: AVEFA; assay: greenhouse herbicidal test, post-emergence treatment; format: in vivo, Avena fatua; settings: post-emergence method, scale from 0 to 100
[6] = system: ECHCG; assay: greenhouse herbicidal test, pre-emergence treatment; format: in vivo, Echinocloa crus-galli; settings: pre-emergence method, scale from 0 to 100
From the text: as §1, §2, §3, §4, §5

[7] = system: SETVI; assay: greenhouse herbicidal test, post-emergence treatment; format: in vivo, Setaria viridis; settings: post-emergence method, scale from 0 to 100
[8] = system: AMARE; assay: greenhouse herbicidal test, pre-emergence treatment; format: in vivo, Amaranthus retroflexus; settings: pre-emergence method, application rate 0.250 kg/ha; scale from 0 to 100
From the text: as §1, §2, §3
(§6) Evaluation was carried out using a scale from 0 to 100. […]

[9] = system: ALOMY; assay: greenhouse herbicidal test, post-emergence treatment; format: in vivo, Alopercurus myosuroides; settings: post-emergence method, application rate 0.250 kg/ha; scale from 0 to 100
From the text: as §1, §2, §3, §6

COC(=O)[C@H]1C[C@@H](NC(=O)C2(C(F)(F)F)CC(c3cc(F)cc(F)c3)=CO2)C1 (stereo partly drawn) [I15]
herbicidal activity against AMARE [1]: very good (a very good herbicidal activity is given at values of 90 to 100)
herbicidal activity against SEFTA [2]: very good (a very good herbicidal activity is given at values of 90 to 100)
herbicidal activity against ECHCG ([3]; application rate 0.250 kg/ha): very good (a very good herbicidal activity is given at values of 90 to 100)
herbicidal activity against APESV ([4]; application rate 0.250 kg/ha): very good (a very good herbicidal activity is given at values of 90 to 100)
herbicidal activity against AVEFA ([5]; application rate 0.250 kg/ha): very good (a very good herbicidal activity is given at values of 90 to 100)
herbicidal activity against ECHCG ([6]; application rate 0.250 kg/ha): very good (a very good herbicidal activity is given at values of 90 to 100)

COC(=O)C[C@H](C)NC(=O)C1(C)CC(c2cc(F)cc(F)c2)=CO1 (single isomer, unassigned) [I2]
herbicidal activity against SETVI ([7]; application rate 1.000 kg/ha): very good (a very good herbicidal activity is given at values of 90 to 100)
herbicidal activity against APESV ([4]; application rate 1,000 kg/ha): very good (a very good herbicidal activity is given at values of 90 to 100)
herbicidal activity against AVEFA ([5]; application rate 1.000 kg/ha): very good (a very good herbicidal activity is given at values of 90 to 100)

COC(=O)[C@@H]1C=C[C@H](NC(=O)C2(C)CC(c3cc(Cl)cc(Cl)c3)=CO2)C1 (relative stereo) [I6]
herbicidal activity against AMARE [1]: very good (a very good herbicidal activity is given at values of 90 to 100)
herbicidal activity against ECHCG ([3]; application rate 0.250 kg/ha): very good (a very good herbicidal activity is given at values of 90 to 100)
herbicidal activity against AMARE [8]: very good (a very good herbicidal activity is given at values of 90 to 100)
herbicidal activity against ECHCG ([6]; application rate 0.250 kg/ha): good (A good herbicidal activity is given at values of 60 to 90)

CC1(C(=O)N[C@H]2C[C@@H](C(=O)O)C2)CC(c2cc(F)cc(F)c2)=CO1 (stereo partly drawn) [I16]
herbicidal activity against AMARE [1]: very good (a very good herbicidal activity is given at values of 90 to 100)
herbicidal activity against ECHCG ([3]; application rate 0.250 kg/ha): very good (a very good herbicidal activity is given at values of 90 to 100)
herbicidal activity against AVEFA ([5]; application rate 0.250 kg/ha): very good (a very good herbicidal activity is given at values of 90 to 100)

COC(=O)CCC(C)NC(=O)C1(C)CC(c2cc(F)cc(F)c2)=CO1 (stereo not drawn) [I12]
herbicidal activity against AMARE [1]: very good (a very good herbicidal activity is given at values of 90 to 100)
herbicidal activity against ECHCG ([3]; application rate 0.250 kg/ha): very good (a very good herbicidal activity is given at values of 90 to 100)
herbicidal activity against APESV ([4]; application rate 0.250 kg/ha): very good (a very good herbicidal activity is given at values of 90 to 100)
herbicidal activity against AVEFA ([5]; application rate 0.250 kg/ha): very good (a very good herbicidal activity is given at values of 90 to 100)
herbicidal activity against ECHCG ([6]; application rate 0.250 kg/ha): good (A good herbicidal activity is given at values of 60 to 90)

COC(=O)C[C@H](C)NC(=O)C1(C)CC(c2cc(Cl)cc(Cl)c2)=CO1 (single isomer, unassigned) [I4]
herbicidal activity against SETVI ([7]; application rate 1.000 kg/ha): very good (a very good herbicidal activity is given at values of 90 to 100)
herbicidal activity against AVEFA ([5]; application rate 1.000 kg/ha): very good (a very good herbicidal activity is given at values of 90 to 100)

COC(=O)[C@@H]1C[C@H](NC(=O)C2(C)CC(c3cc(F)cc(F)c3)=CO2)CO1 (stereo partly drawn) [I10]
herbicidal activity against AMARE [1]: very good (a very good herbicidal activity is given at values of 90 to 100)
herbicidal activity against SETVI ([7]; application rate 0.250 kg/ha): very good (a very good herbicidal activity is given at values of 90 to 100)
herbicidal activity against APESV ([4]; application rate 0.250 kg/ha): very good (a very good herbicidal activity is given at values of 90 to 100)
herbicidal activity against AVEFA ([5]; application rate 0.250 kg/ha): very good (a very good herbicidal activity is given at values of 90 to 100)
herbicidal activity against ECHCG ([6]; application rate 0.250 kg/ha): good (A good herbicidal activity is given at values of 60 to 90)

COC(=O)C[C@H](C)NC(=O)C1(C)CC(c2cc(Cl)cc(Cl)c2)=CO1 (single isomer, unassigned) [I3]
herbicidal activity against SETFA [2]: very good (a very good herbicidal activity is given at values of 90 to 100)
herbicidal activity against ECHCG ([3]; application rate 1.000 kg/ha): very good (a very good herbicidal activity is given at values of 90 to 100)
herbicidal activity against APESV ([4]; application rate 1,000 kg/ha): very good (a very good herbicidal activity is given at values of 90 to 100)
herbicidal activity against ECHCG ([6]; application rate 1,000 kg/ha): very good (a very good herbicidal activity is given at values of 90 to 100)

CSCCOC(=O)[C@H]1C[C@@H](NC(=O)C2(C)CC(c3cc(F)cc(F)c3)=CO2)C1 (stereo partly drawn) [I17]
herbicidal activity against AMARE [1]: very good (a very good herbicidal activity is given at values of 90 to 100)
herbicidal activity against ECHCG ([3]; application rate 0.250 kg/ha): very good (a very good herbicidal activity is given at values of 90 to 100)
herbicidal activity against AVEFA ([5]; application rate 0.250 kg/ha): very good (a very good herbicidal activity is given at values of 90 to 100)

COC(=O)CCC(C)NC(=O)C1(C)CC(c2cc(F)cc(F)c2)=CO1 (stereo not drawn) [I13]
herbicidal activity against AVEFA ([5]; application rate 0.250 kg/ha): good (A good herbicidal activity is given at values of 60 to 90)

COC(=O)[C@@H]1C=C[C@H](NC(=O)C2(C(F)(F)F)CC(c3cc(F)cc(F)c3)=CO2)C1 (relative stereo) [I8]
herbicidal activity against AMARE [1]: very good (a very good herbicidal activity is given at values of 90 to 100)
herbicidal activity against SEFTA [2]: very good (a very good herbicidal activity is given at values of 90 to 100)
herbicidal activity against ECHCG ([3]; application rate 0.250 kg/ha): very good (a very good herbicidal activity is given at values of 90 to 100)
herbicidal activity against ALOMY [9]: good (A good herbicidal activity is given at values of 60 to 90)
herbicidal activity against APESV ([4]; application rate 0.250 kg/ha): very good (a very good herbicidal activity is given at values of 90 to 100)

COC(=O)[C@H]1C[C@@H](NC(=O)C2(C)CC(c3cc(F)cc(F)c3)=CO2)C1 (stereo partly drawn) [I11]
herbicidal activity against AMARE [1]: very good (a very good herbicidal activity is given at values of 90 to 100)
herbicidal activity against SEFTA [2]: very good (a very good herbicidal activity is given at values of 90 to 100)
herbicidal activity against ECHCG ([3]; application rate 0.250 kg/ha): very good (a very good herbicidal activity is given at values of 90 to 100)
herbicidal activity against APESV ([4]; application rate 0.250 kg/ha): very good (a very good herbicidal activity is given at values of 90 to 100)
herbicidal activity against AVEFA ([5]; application rate 0.250 kg/ha): very good (a very good herbicidal activity is given at values of 90 to 100)
herbicidal activity against ECHCG ([6]; application rate 0.250 kg/ha): good (A good herbicidal activity is given at values of 60 to 90)

COC(=O)C1CC(NC(=O)C2(C)CC(c3cc(F)cc(F)c3)=CO2)CO1 (stereo not drawn) [I9]
herbicidal activity against AMARE [1]: very good (a very good herbicidal activity is given at values of 90 to 100)
herbicidal activity against SETVI ([7]; application rate 0.250 kg/ha): very good (a very good herbicidal activity is given at values of 90 to 100)
herbicidal activity against APESV ([4]; application rate 0.250 kg/ha): good (A good herbicidal activity is given at values of 60 to 90)
herbicidal activity against AVEFA ([5]; application rate 0.250 kg/ha): very good (a very good herbicidal activity is given at values of 90 to 100)

COC(=O)C[C@H](C)NC(=O)C1(C)CC(c2cc(F)cc(F)c2)=CO1 (single isomer, unassigned) [I1]
herbicidal activity against SETFA [2]: very good (a very good herbicidal activity is given at values of 90 to 100)
herbicidal activity against ECHCG ([3]; application rate 1.000 kg/ha): very good (a very good herbicidal activity is given at values of 90 to 100)
herbicidal activity against SETVI ([7]; application rate 1.000 kg/ha): very good (a very good herbicidal activity is given at values of 90 to 100)
herbicidal activity against APESV ([4]; application rate 1,000 kg/ha): very good (a very good herbicidal activity is given at values of 90 to 100)
herbicidal activity against ECHCG ([6]; application rate 1,000 kg/ha): very good (a very good herbicidal activity is given at values of 90 to 100)

COC(=O)C1CCC(NC(=O)C2(C)CC(c3cc(Cl)cc(Cl)c3)=CO2)C1 (stereo not drawn) [I14]
herbicidal activity against APESV ([4]; application rate 0.250 kg/ha): good (A good herbicidal activity is given at values of 60 to 90)

COC(=O)[C@@H]1C=C[C@H](NC(=O)C2(C)CC(c3cc(F)cc(F)c3)=CO2)C1 (stereo partly drawn) [I5, methyl (1S,4R)-4-[[4-(3,5-difluorophenyl)-2-methyl-3H-furan-2-carbonyl]amino]cyclopent-2-ene-1-carboxylate]
herbicidal activity against AMARE [1]: very good (a very good herbicidal activity is given at values of 90 to 100)
herbicidal activity against ECHCG ([3]; application rate 0.250 kg/ha): very good (a very good herbicidal activity is given at values of 90 to 100)
herbicidal activity against AMARE [8]: very good (a very good herbicidal activity is given at values of 90 to 100)
herbicidal activity against APESV ([4]; application rate 0.250 kg/ha): very good (a very good herbicidal activity is given at values of 90 to 100)
herbicidal activity against AVEFA ([5]; application rate 0.250 kg/ha): very good (a very good herbicidal activity is given at values of 90 to 100)
herbicidal activity against ECHCG ([6]; application rate 0.250 kg/ha): very good (a very good herbicidal activity is given at values of 90 to 100)
